In this experiment the target is T1, Pneumolysin, P0C2J9.
T1 chain: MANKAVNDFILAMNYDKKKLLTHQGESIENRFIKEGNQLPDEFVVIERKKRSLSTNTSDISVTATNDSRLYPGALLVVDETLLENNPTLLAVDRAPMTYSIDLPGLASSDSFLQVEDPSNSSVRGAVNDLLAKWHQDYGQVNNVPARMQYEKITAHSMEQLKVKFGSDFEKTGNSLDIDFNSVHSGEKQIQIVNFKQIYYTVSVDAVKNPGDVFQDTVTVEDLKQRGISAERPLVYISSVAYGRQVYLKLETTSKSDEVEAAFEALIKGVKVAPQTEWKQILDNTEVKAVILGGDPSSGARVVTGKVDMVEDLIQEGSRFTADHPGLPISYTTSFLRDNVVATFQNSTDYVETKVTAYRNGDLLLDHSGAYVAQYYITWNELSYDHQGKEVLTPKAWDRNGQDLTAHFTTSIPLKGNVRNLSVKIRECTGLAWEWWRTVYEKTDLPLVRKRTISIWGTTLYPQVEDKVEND
As to the kind of experiment: transmission electron microscopy (negative stain); sporadic observation: pneumolysin sprayed at too high a flow rate onto a lipid monolayer, salt residues on the surface, enough lipid then sprayed to form bilayers, covered with glycerol; five days of incubation; 1% uranyl acetate; both purified. As to conditions: remark: other sources report otherwise.

Results are given in words; binding and its absence hold for the method and conditions named. Some entries that bind do so weakly or less than the wild type.

B1: Pneumolysin, P0C2J9 1-471 (protein)
chain: T1 chain
As to B1, the binding entry is reported as “binds”.
